Measured values: PubChem BioAssay AID662 (National Center for Advancing Translational Sciences (NCATS), 2007)
This is one part of the list. These are further read-outs of the screen, such as a control signal, another cell line or another target. No call is given for them. The list favours compounds with an active or inconclusive main result. The note in brackets gives the kind of curve behind each potency; many fits are weak.

Assay: Cell signaling CRE-BLA (Fsk stim)
Settings: CHO CRE-bla reporter (cAMP response element driving beta-lactamase), forskolin EC10, beta-lactamase ratio; measured here: 460 nm blue channel
How it was run: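 Modulation of forskolin-driven signalling is measured in CHO cells carrying a CRE-controlled beta-lactamase reporter. Cells are stimulated with EC10 NKH 477 in the presence of titrated compound for 3 h at 37 °C, then loaded with CCF4 for 2 h at room temperature.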

For `c1cncc(CNc2nc(-c3cccnc3)nc3ccccc23)c1`, which AC50 is on record?
Its AC50 is 3.98 µM [rising, full curve].

Which AC50 does the source give for `N#Cc1c(NC(=O)c2ccc(Br)o2)n(-c2ccccc2)c2nc3ccccc3nc12` here?
Its AC50 is 12.6 µM [rising, partial curve].

With `CC(Oc1ccccc1)C(=O)OCC(=O)NC(=O)NCc1ccco1` (centres undefined) as the molecule, how does the AC50 read?
The AC50 was 7.94 µM [falling, partial curve].

Which AC50 does the source give for `COCCNc1nc(-c2ccccc2Cl)nc2ccccc12` here?
The AC50 was 6.31 µM [rising, partial curve].

For `Cc1ccsc1-c1nc(CSCC(=O)N2CCN(c3ccccc3)CC2)c(C)o1`, which AC50 is on record?
Its AC50 is 25.1 µM [falling, single point].

With `O=C(CCN1CCCCC1)c1ccc2c(c1)OCCO2` as the molecule, how does the AC50 read?
Its AC50 is 6.31 µM [falling, partial curve].

For `c1ccc(-n2c(SCc3nc(-c4cccs4)no3)nnc2-c2ccco2)cc1`, which AC50 is on record?
The AC50 was 10 µM [rising, partial curve].

With `COc1ccc(C(c2sc3nc(C)nn3c2O)N2CCC(C(N)=O)CC2)cc1OC` (centres undefined) as the molecule, how does the AC50 read?
The AC50 was 10 µM [rising, partial curve].

With `CCC(=O)Nc1ccc(NC(=O)c2c(C)nc3ccccn23)cc1` as the molecule, how does the AC50 read?
Its AC50 is 20 µM [rising, single point].

Which AC50 does the source give for `CCN(CC)S(=O)(=O)c1ccc(OCC(=O)NCc2ccccc2)cc1` here?
Its AC50 is 5.01 µM [falling, single point].

For `COc1cccc2cc(NC(=O)C3CCCCC3)c(=O)oc12`, which AC50 is on record?
The AC50 was 0.794 µM [rising, full curve, poor fit].

With `C=Cn1nc(C)c2ccccc2c1=O` as the molecule, how does the AC50 read?
Its AC50 is 12.6 µM [rising, single point].

Which AC50 does the source give for `CC(C)=C[C@H]1[C@@H](C(=O)Oc2ccccc2C(C)C)C1(C)C` here?
Its AC50 is 5.01 µM [rising, single point].

With `C=CCSc1nc(N)c(C#N)c(-c2ccc(C)cc2)c1C#N` as the molecule, how does the AC50 read?
The AC50 was 3.16 µM [rising, partial curve].

With `CC(C)COC(=O)c1cc(=O)[nH]c2ccccc12` as the molecule, how does the AC50 read?
Its AC50 is 15.8 µM [rising, partial curve].

Which AC50 does the source give for `COc1ccc(S(=O)(=O)NC(CC(=O)NCC2CCCO2)c2ccco2)cc1` (centres undefined) here?
The AC50 was 0.00794 µM [falling, full curve, poor fit].

Which AC50 does the source give for `COc1ccc(NC(=O)Cn2nc3n(c2=S)CCC3)cc1` here?
The AC50 was 0.0398 µM [rising, full curve, poor fit].

Which AC50 does the source give for `CC(C)Sc1nc2c(cnn2-c2ccc(F)cc2)c(=O)[nH]1` here?
Its AC50 is 2.51 µM [rising, full curve].

Which AC50 does the source give for `Cn1c(-c2cccc(Br)c2)cnc1NCc1cccnc1` here?
Its AC50 is 5.01 µM [rising, single point].

Which AC50 does the source give for `COC(=O)Cc1[nH]nc2c1C(C1C=CCCC1)C(C#N)=C(N)O2` (centres undefined) here?
The AC50 was 0.1 µM [falling, full curve].

For `CCOC(=O)c1ccc(Nc2ncnc3c2cnn3C)cc1`, which AC50 is on record?
Its AC50 is 10 µM [rising, single point].

With `N[C@H](C(=O)O)c1nn[nH]n1` as the molecule, how does the AC50 read?
Its AC50 is 31.6 µM [falling, single point].

With `CC(=O)c1ccccc1Oc1nc(CN2CCOCC2)nc2scc(-c3cccs3)c12` as the molecule, how does the AC50 read?
The AC50 was 10 µM [rising, single point].

With `COCCCn1cnc2c(c1=O)c1nc3ccccc3nc1n2-c1ccccc1` as the molecule, how does the AC50 read?
Its AC50 is 1 µM [rising, full curve].

With `c1coc(CNc2c3c(nc4ncnn24)CCC3)c1` as the molecule, how does the AC50 read?
The AC50 was 5.01 µM [falling, single point].

For `COc1cccc(-c2cc(C(=O)Nc3ccccc3SC)no2)c1`, which AC50 is on record?
Its AC50 is 3.16 µM [falling, partial curve, poor fit].

For `CC(C)Oc1ccccc1-c1nc(SCC(=O)O)n[nH]1`, which AC50 is on record?
The AC50 was 10 µM [falling, partial curve, poor fit].

Which AC50 does the source give for `CCn1c2ccccc2c2nnc(SCC(=O)NCc3cccs3)nc21` here?
The AC50 was 10 µM [rising, partial curve].

For `CCOc1ccc(NC(=O)c2nnn(CC(=O)Nc3ccccc3OCC)c2N)cc1`, which AC50 is on record?
Its AC50 is 2 µM [rising, single point].

Which AC50 does the source give for `Cc1cc(=O)[nH]c(SCc2nc3ccccc3n2Cc2ccccc2)n1` here?
The AC50 was 15.8 µM [rising, single point].

Which AC50 does the source give for `COc1ccc(C(=O)N2CCCC(c3nc(-c4cccs4)no3)C2)cc1OC` (centres undefined) here?
The AC50 was 20 µM [rising, single point].

With `Clc1ccc2c(c1)c1ccccc1n2CN1CCOCC1` as the molecule, how does the AC50 read?
The AC50 was 10 µM [rising, single point].

For `Cc1nc(SCC(=O)N2CCOCC2)c2ccsc2n1`, which AC50 is on record?
The AC50 was 5.01 µM [falling, partial curve].

For `O=C(CSc1nnc(-c2cccnc2)n1Cc1ccco1)c1ccc(Cl)c(Cl)c1`, which AC50 is on record?
Its AC50 is 12.6 µM [rising, single point].

For `CC(C)C[C@@H](CC(=O)N[C@@H](CCC(=O)O)CC(=O)O)NC(=O)[C@@H]1CNCC[C@H]1NC(=O)C[C@@H](NC(=O)C[C@H](CO)NC(=O)[C@@H]1CNCC[C@H]1N)C(C)C`, which AC50 is on record?
The AC50 was 10 µM [falling, full curve, poor fit].

For `Cc1cccc(N2CCN(S(=O)(=O)c3ccc4c(c3)CCN4C(=O)CCC(=O)O)CC2)c1C`, which AC50 is on record?
The AC50 was 0.316 µM [falling, full curve].

With `N[C@@H](CO)C(=O)O` as the molecule, how does the AC50 read?
The AC50 was 31.6 µM [falling, single point].

Which AC50 does the source give for `O=C(NC1CC1)c1ccc2c(c1)ncn2C1CCCC1` here?
Its AC50 is 25.1 µM [rising, single point].

Which AC50 does the source give for `O=C(Nc1ccccc1C(=O)OCn1nnc2ccccc2c1=O)c1ccco1` here?
Its AC50 is 25.1 µM [rising, single point].

Which AC50 does the source give for `Cc1ccc(S(=O)(=O)n2nc(-c3ccco3)nc2SCc2ccccc2)cc1` here?
Its AC50 is 1.26 µM [falling, full curve, poor fit].

With `CCOC(=O)Nc1ccc2c(c1)N(C(=O)OC)c1ccccc1CC2` as the molecule, how does the AC50 read?
Its AC50 is 25.1 µM [rising, single point].

With `Cc1nc(N)c(C#N)c(-c2ccccc2)c1C` as the molecule, how does the AC50 read?
The AC50 was 3.16 µM [rising, partial curve].

With `CN1C(=O)CC[C@@H]1c1cccnc1` as the molecule, how does the AC50 read?
Its AC50 is 5.01 µM [rising, single point].

With `Cc1ccc(S(=O)(=O)N(C)Cc2ccc(-c3nnc4n3CCC4)cc2)cc1` as the molecule, how does the AC50 read?
The AC50 was 5.01 µM [falling, single point].
